Measurements published in PubChem BioAssay AID504467 (National Center for Advancing Translational Sciences (NCATS), 2011).
Among all 330,000 compounds or so, about 7,700 (2.3%) were called active. This list was built around the results that the source calls inconclusive (neither active nor inactive); the mix of calls is not that of the screen. The call rests on the fitted dose curve; in most records, active means well fitted inhibition curve with a large enough effect; inconclusive means small, poorly fitted or top-dose-only effect, or effect the other way; inactive means flat fitted curve, though single readings scatter. Potencies beside an inconclusive call are fits to weak or partial responses and may not hold up.

Assay: qHTS screen for small molecules that inhibit ELG1-dependent DNA repair in human embryonic kidney (HEK293T) cells expressing luciferase-tagged ELG1; further: nearly all actives have a fitted effect of over 55% in size
Conditions: HEK293T ELG1-luciferase reporter, luminescence, 16 h, DNA damage induced by 5-fluorouridine; series mostly up to 46.1 µM
Summary of the method: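 Luminescence from the luciferase reporter, measured 30 min after ONE-Glo reagent at room temperature, was the read-out. Beforehand, 2,000 cells per well were exposed for 16 hr at 37 °C to 5-fluorouridine together with compound or vehicle.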
Potency means the concentration at half of the fitted maximal effect.

**Q.** Which Potency does the source give for `COc1ccc(OC)c(C2=NOC(C(=O)NCc3ccco3)C2)c1` (stereo not given) here?
**A.** inactive

**Q.** For `Cc1ccc(NC(=O)CN(C)CC(=O)Nc2ccccc2-c2ccccc2)cc1`, which Potency is on record?
**A.** inconclusive: 16.4 µM [inhibitor, partial curve]

**Q.** With `COc1ccc(/C=N/N=C2/CC(C)(C)Cc3n[nH]c(=O)cc32)cc1` as the compound, how does the Potency read?
**A.** inactive

**Q.** For `COc1ccc2occ(C(=O)c3ccccc3)c2c1`, which Potency is on record?
**A.** inconclusive: 20.6 µM [activator, partial curve]

**Q.** Which Potency does the source give for `Cc1c([N+](=O)[O-])cc(C(=O)Nc2ccc3ncccc3c2)cc1[N+](=O)[O-]` here?
**A.** inactive

**Q.** For `CCCN1C(=O)c2cc(C(=O)NCCc3cccc(C)c3)ccc2C1O` (stereo not given), which Potency is on record?
**A.** inconclusive: 18.4 µM [activator, partial curve, poor fit]

**Q.** Which Potency does the source give for `COc1ccc2c(c1)C(=O)CC(c1ccc(OC)c(OC)c1)O2` (stereo not given) here?
**A.** inactive

**Q.** Which Potency does the source give for `S=c1[nH]nc(-c2ccco2)n1-c1ccccc1Cl` here?
**A.** inconclusive: 20.6 µM [activator, single point]

**Q.** Which Potency does the source give for `COc1ccccc1C1C([N+](=O)[O-])=CC([N+](=O)[O-])=CN1C` (stereo not given) here?
**A.** inconclusive: 8.2 µM [inhibitor, partial curve, poor fit]

**Q.** For `O=C(CCCn1c(=O)[nH]c2cc(Cl)ccc2c1=O)NC1CCCCCCC1`, which Potency is on record?
**A.** inconclusive: 29.1 µM [inhibitor, single point]

**Q.** With `[O-][n+]1ccccc1SC/C=C/c1ccccc1` as the compound, how does the Potency read?
**A.** inconclusive: 25.9 µM [activator, single point]

**Q.** Which Potency does the source give for `NC(=S)N/N=C/c1cn(-c2ccccc2)nc1-c1cccnc1` here?
**A.** inactive

**Q.** Which Potency does the source give for `Cc1ccc(C(=O)NC(=O)CSc2nnc(C)s2)cc1` here?
**A.** inactive

**Q.** For `Cc1ccccc1CSc1ccc(-c2ccc3c(c2)OCO3)nn1`, which Potency is on record?
**A.** inconclusive: 20.6 µM [activator, partial curve]

**Q.** For `CC1CCC2(CC1)NC(=O)N(CC(=O)Nc1ccc3c(c1)CCC3)C2=O` (stereo not given), which Potency is on record?
**A.** inactive

**Q.** Which Potency does the source give for `O=C(Nn1c(C2CCCCC2)nc2ccccc2c1=O)c1ccc([N+](=O)[O-])cc1` here?
**A.** inactive

**Q.** With `O=C(CCCN1C(=O)S/C(=C\c2ccccc2)C1=O)NNC(=O)c1ccccc1O` as the compound, how does the Potency read?
**A.** inconclusive: 10.3 µM [inhibitor, partial curve, poor fit]

**Q.** Which Potency does the source give for `CCOC(=O)C1CCN(C(=O)/C=C/c2cccs2)CC1` here?
**A.** inconclusive: 18.3 µM [activator, partial curve]

**Q.** Which Potency does the source give for `Cc1cccc(N=Nc2c(C)[nH]n(C(N)=S)c2=O)c1C` here?
**A.** inconclusive: 16.4 µM [activator, partial curve]

**Q.** With `COC(=O)CCCC1=CC2=CC(=O)C(C)(OC(=O)c3cccs3)C(=O)C2=CN1C1CCCCC1` (stereo not given) as the compound, how does the Potency read?
**A.** inactive

**Q.** For `O=C(OC(C(=O)NCc1ccc2c(c1)OCO2)c1ccncc1)c1ccc(Cl)nc1` (stereo not given), which Potency is on record?
**A.** inactive

**Q.** With `COc1cc(/C=N/Nc2ccc(C(=O)O)cc2)cc(OC)c1OC` as the compound, how does the Potency read?
**A.** inconclusive: 10.3 µM [activator, partial curve]

**Q.** With `Cc1cccc(Cc2cnc(N3C(=N)SC(C)C3=O)s2)c1` (stereo not given) as the compound, how does the Potency read?
**A.** inconclusive: 18.3 µM [inhibitor, partial curve, poor fit]

**Q.** Which Potency does the source give for `COc1cc(-c2nc3n(n2)C(c2ccncc2)C2=C(CCCC2=O)N3)cc(OC)c1OC` (stereo not given) here?
**A.** inconclusive: 20.6 µM [activator, single point]

**Q.** With `Cc1ccc2oc(NC(=O)N3CCOCC3)cc(=O)c2c1` as the compound, how does the Potency read?
**A.** active: 3.55 µM

**Q.** With `CC[C@@H](C)[C@H](CN[C@H](CNC)[C@@H](C)O)NCCc1ccc(OC)cc1` as the compound, how does the Potency read?
**A.** inactive

**Q.** With `Cc1sc(NC(=O)Cc2ccc3c(c2)OCO3)nc1-c1ccc2c(c1)CCN2C(=O)c1cccc(F)c1` as the compound, how does the Potency read?
**A.** inconclusive: 3.66 µM [inhibitor, full curve]

**Q.** With `Cc1nnc(NC(=O)c2cccc(F)c2)s1` as the compound, how does the Potency read?
**A.** inconclusive: 25.9 µM [activator, single point]

**Q.** Which Potency does the source give for `O=C(N/N=C/c1ccc2cccnc2c1)c1nc2ccccc2c(=O)[nH]1` here?
**A.** inconclusive: 23.1 µM [activator, partial curve]

**Q.** For `Cc1cccc(NC(=O)CN2CCN(C(=O)C(C)Oc3ccc(C#N)cc3)CC2)c1C` (stereo not given), which Potency is on record?
**A.** inconclusive: 7.3 µM [inhibitor, partial curve, poor fit]

**Q.** With `CCNc1nc2c(c(=O)n(Cc3ccccc3)c(=O)n2C)n1Cc1ccccc1` as the compound, how does the Potency read?
**A.** active: 13 µM

**Q.** Which Potency does the source give for `Cn1cccc1C(=O)C(=O)Nc1ccc(Cl)cc1` here?
**A.** inconclusive: 4.61 µM [activator, partial curve]

**Q.** For `CCOC(=O)N1CCN(C(=O)c2cnc(Nc3ccccc3OC)c3ccccc23)CC1`, which Potency is on record?
**A.** inconclusive: 14.6 µM [inhibitor, partial curve, poor fit]

**Q.** With `CCN(CC)c1cc(NCCO)c([N+](=O)[O-])c2nonc12` as the compound, how does the Potency read?
**A.** inactive

**Q.** With `O=C(COc1ccccc1[N+](=O)[O-])N/N=C/C=C/c1ccco1` as the compound, how does the Potency read?
**A.** inconclusive: 3.16 µM [activator, full curve]

**Q.** With `COc1ccccc1NC(=S)Nc1cccc2cnccc12` as the compound, how does the Potency read?
**A.** inconclusive: 2.31 µM [inhibitor, partial curve, poor fit]

**Q.** With `COc1ccccc1N=Cc1c(O)c2ccccc2oc1=O` as the compound, how does the Potency read?
**A.** inconclusive: 20.6 µM [activator, single point]

**Q.** With `CC1CCN(C(=O)c2cc3c(=O)n4ccccc4nc3s2)CC1` as the compound, how does the Potency read?
**A.** inconclusive: 20.6 µM [activator, single point]

**Q.** With `CCOc1ncccc1C(=O)OCC(=O)Nc1cccc(S(=O)(=O)N2CCCCCC2)c1` as the compound, how does the Potency read?
**A.** inconclusive: 29.1 µM [inhibitor, single point]

**Q.** Which Potency does the source give for `N#Cc1ccc(OCc2noc(-c3ccsc3)n2)cc1` here?
**A.** inconclusive: 16.4 µM [activator, single point]

**Q.** With `Nc1ccc2nn(-c3ccc(F)cc3)nc2c1` as the compound, how does the Potency read?
**A.** inconclusive: 3.26 µM [activator, full curve]

**Q.** Which Potency does the source give for `O=c1nc(Nc2ccc(OCc3ccccc3)cc2)sc2ncccc12` here?
**A.** inconclusive: 3.26 µM [activator, full curve, poor fit]

**Q.** For `O=C1c2ccccc2CC1Sc1nnc(-c2ccccn2)o1` (stereo not given), which Potency is on record?
**A.** inconclusive: 20.6 µM [activator, single point]

**Q.** With `CCC(C)NC(=O)Cn1nc(Cc2ccncc2)c2ccccc2c1=O` (stereo not given) as the compound, how does the Potency read?
**A.** inactive

**Q.** Which Potency does the source give for `COc1ccc(-n2nc(C(=O)NCC(=O)N3CCC(C)CC3)c3ccccc3c2=O)cc1Cl` here?
**A.** inconclusive: 29.1 µM [inhibitor, single point]
